Values from PubChem BioAssay AID652272 (Drosophila RNAi Screening Center, 2013)

Test: 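Genome-wide knock-down search for components of Hedgehog signalling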 (primary screen)
Cell system: Drosophila clone 8 (Cl8) cells
Reagents: long dsRNA against Drosophila genes
Read-out: 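Plate reader light from a firefly reporter under a ptc promoter fragment that responds to Hedgehog, with Renilla light as transfection reference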
Reading the numbers: firefly Hh reporter signal: higher = more ptc reporter light; Renilla reference signal: higher = more Renilla control light
Hit rule: 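Hit when the z-score averaged over two replicates is under -2 or over +3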
Calls: active = hit: reporter lowered or raised; inactive = not a hit
The deposit covers about 21,000 reagents; shown is a random part of those that have a named target and a result. In the full data, 503 (2.4%) got an active call. 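Raw plate light values, not normalised; calls rest on replicate z-scores that were not deposited; hits include reporter decreases as well as increases.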 The numbers tell different reagents against one gene apart. Not given: the amount of reagent, the time to read-out.

Glut1 (GeneID 38109) #1 — firefly Hh reporter signal, replicate 1: 81771; firefly Hh reporter signal, replicate 2: 3.59e5; Renilla reference signal, replicate 1: 2579; Renilla reference signal, replicate 2: 14139; call: inactive
Glut1 (GeneID 38109) #2 — firefly Hh reporter signal, replicate 1: 75061; firefly Hh reporter signal, replicate 2: 47016; Renilla reference signal, replicate 1: 2160; Renilla reference signal, replicate 2: 3281; call: inactive
Glut1 (GeneID 38109) #3 — firefly Hh reporter signal, replicate 1: 1.08e5; firefly Hh reporter signal, replicate 2: 1.11e5; Renilla reference signal, replicate 1: 4490; Renilla reference signal, replicate 2: 4068; call: inactive
CG12862 (GeneID 36625) — firefly Hh reporter signal, replicate 1: 73434; firefly Hh reporter signal, replicate 2: 44300; Renilla reference signal, replicate 1: 2208; Renilla reference signal, replicate 2: 3830; call: inactive
Apoltp (GeneID 34283) — firefly Hh reporter signal, replicate 1: 56499; firefly Hh reporter signal, replicate 2: 31312; Renilla reference signal, replicate 1: 2355; Renilla reference signal, replicate 2: 1616; call: inactive
ath (GeneID 34357) — firefly Hh reporter signal, replicate 1: 74480; firefly Hh reporter signal, replicate 2: 52422; Renilla reference signal, replicate 1: 2165; Renilla reference signal, replicate 2: 4704; call: inactive
CG5509 (GeneID 41539) — firefly Hh reporter signal, replicate 1: 90130; firefly Hh reporter signal, replicate 2: 1.19e5; Renilla reference signal, replicate 1: 1696; Renilla reference signal, replicate 2: 6984; call: inactive
CG4607 (GeneID 31653) — firefly Hh reporter signal, replicate 1: 82448; firefly Hh reporter signal, replicate 2: 2.09e5; Renilla reference signal, replicate 1: 2609; Renilla reference signal, replicate 2: 8400; call: inactive
PolZ2 (GeneID 40677) — firefly Hh reporter signal, replicate 1: 75000; firefly Hh reporter signal, replicate 2: 1.09e5; Renilla reference signal, replicate 1: 2384; Renilla reference signal, replicate 2: 3237; call: inactive
Cyt-c-p (GeneID 34996) — firefly Hh reporter signal, replicate 1: 1.01e5; firefly Hh reporter signal, replicate 2: 69929; Renilla reference signal, replicate 1: 1963; Renilla reference signal, replicate 2: 5930; call: inactive
Liprin-beta (GeneID 39524) — firefly Hh reporter signal, replicate 1: 45489; firefly Hh reporter signal, replicate 2: 12400; firefly Hh reporter signal, replicate 3: 32714; Renilla reference signal, replicate 1: 1686; Renilla reference signal, replicate 2: 2416; call: inactive
D19A (GeneID 38718) — firefly Hh reporter signal, replicate 1: 44342; firefly Hh reporter signal, replicate 2: 54760; Renilla reference signal, replicate 1: 1859; Renilla reference signal, replicate 2: 1979; call: inactive
lic (GeneID 32257) — firefly Hh reporter signal, replicate 1: 1.10e5; firefly Hh reporter signal, replicate 2: 59830; Renilla reference signal, replicate 1: 3264; Renilla reference signal, replicate 2: 1740; call: inactive
RpL18 (GeneID 38794) — firefly Hh reporter signal, replicate 1: 47303; firefly Hh reporter signal, replicate 2: 2.11e5; firefly Hh reporter signal, replicate 3: 41920; Renilla reference signal, replicate 1: 8679; Renilla reference signal, replicate 2: 18058; call: active
CG18853 (GeneID 246511) — firefly Hh reporter signal, replicate 1: 94557; firefly Hh reporter signal, replicate 2: 65057; Renilla reference signal, replicate 1: 2192; Renilla reference signal, replicate 2: 5212; call: inactive
PhKgamma (GeneID 32120) — firefly Hh reporter signal, replicate 1: 96182; firefly Hh reporter signal, replicate 2: 75868; Renilla reference signal, replicate 1: 2369; Renilla reference signal, replicate 2: 1952; call: inactive
ProtB (GeneID 34867) — firefly Hh reporter signal, replicate 1: 1.05e5; firefly Hh reporter signal, replicate 2: 51098; Renilla reference signal, replicate 1: 2682; Renilla reference signal, replicate 2: 5383; call: inactive
Cep135 (GeneID 39647) #1 — firefly Hh reporter signal, replicate 1: 2.42e5; Renilla reference signal, replicate 1: 5650; call: inactive
Cep135 (GeneID 39647) #2 — firefly Hh reporter signal, replicate 1: 1.34e5; firefly Hh reporter signal, replicate 2: 69200; Renilla reference signal, replicate 1: 4873; Renilla reference signal, replicate 2: 2961; call: inactive
t-Grip84 (GeneID 38852) — firefly Hh reporter signal, replicate 1: 54594; firefly Hh reporter signal, replicate 2: 56987; Renilla reference signal, replicate 1: 6435; Renilla reference signal, replicate 2: 4235; call: inactive
CG43131 (GeneID 12798230) — firefly Hh reporter signal, replicate 1: 5.45e5; firefly Hh reporter signal, replicate 2: 1.80e5; firefly Hh reporter signal, replicate 3: 80732; Renilla reference signal, replicate 1: 3508; Renilla reference signal, replicate 2: 3280; call: inactive

2 consecutive reagents already listed, quoted:
ath (GeneID 34357) — firefly Hh reporter signal, replicate 1: 74480; firefly Hh reporter signal, replicate 2: 52422; Renilla reference signal, replicate 1: 2165; Renilla reference signal, replicate 2: 4704; call: inactive
CG5509 (GeneID 41539) — firefly Hh reporter signal, replicate 1: 90130; firefly Hh reporter signal, replicate 2: 1.19e5; Renilla reference signal, replicate 1: 1696; Renilla reference signal, replicate 2: 6984; call: inactive
